# Measured values from paper PMC7819943, “Rice protein-binding microarrays: a tool to detect cis-acting elements near promoter regions in rice”.
# The chains behind the UniProt entries cited, without tags or fusion partners.
# UniProt Q0JBA9, entry or part of it: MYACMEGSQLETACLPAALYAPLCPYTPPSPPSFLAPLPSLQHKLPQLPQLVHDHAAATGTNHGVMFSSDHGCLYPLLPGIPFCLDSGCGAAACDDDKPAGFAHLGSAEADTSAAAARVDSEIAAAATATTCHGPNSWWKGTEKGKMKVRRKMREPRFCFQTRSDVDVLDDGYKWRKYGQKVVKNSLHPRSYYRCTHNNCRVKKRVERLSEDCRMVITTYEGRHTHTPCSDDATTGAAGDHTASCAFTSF
# This is one part of the list.
# Molecular target: OsWRKY34 (Oryza sativa, UniProt Q0JBA9 1-250)
# Assay: protein-binding microarray (RPBM); PBS, 2% BSA, 51.3 ng/ul salmon testes DNA, 50 uM zinc acetate, 200 nM TF, 25 C, 1 h; high values mean tight binding
# Conditions: protein: recombinant; tags: N-terminal polyhistidine and DsRed monomer fusion (pET32a); label: CyDye5-dUTP incorporated in the synthesized complementary strand; 3' TTTTT single-stranded linker to array surface; dsDNA, one strand shown
# In short: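 Binding signal is reported as fluorescence intensity per feature (arbitrary units) from an Axon 4000B scanner. Incubation used 200 nM of each Ni–NTA-purified, N-terminally polyhistidine- and DsRed-fused transcription factor from E. coli BL21-CodonPlus on a double-stranded custom Agilent array for 1 h at 25 °C, with 50 µM zinc acetate in the buffer, followed by washing.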
row,Sequence,binding signal
1,GGTGCTCCGTCCATAGCTCTCTTGCCTCCGCCCATAAATACGGAGTCACCTAGTGCAG,10900 fluorescence intensity (a.u.)
2,ATGATGTGCGTTGGTTACTACTCCCTCCGTTTCAAAATGTCGGAGTCACCTAGTGCAG,9380 fluorescence intensity (a.u.)
3,TACGTGTATAGTGGGGCGTGTGGTTGTACAATTTTCATGTCGGAGTCACCTAGTGCAG,9360 fluorescence intensity (a.u.)
4,AGGAATGCATTTGTGGTGGGTGCAGGTGCGCGGGTGGCGACGGAGTCACCTAGTGCAG,8200 fluorescence intensity (a.u.)
5,AAACCTCTATCCACGTCATATTTTATTTCTTGCAAGTATTCGGAGTCACCTAGTGCAG,9350 fluorescence intensity (a.u.)
6,ACCTTGTTTTCCTCACCCGACCGTCTGCAAGTTTGCTTCCCGGAGTCACCTAGTGCAG,9130 fluorescence intensity (a.u.)
7,CAATGTAAGTCATTATAGCATTTTCTACATTCATATTGATCGGAGTCACCTAGTGCAG,8360 fluorescence intensity (a.u.)
8,CCTAATCCCACTCTAGTTTCTGAAATAGTAAACGCGCATACGGAGTCACCTAGTGCAG,8950 fluorescence intensity (a.u.)
9,CCCCTTCGACACCTCGACTTGCTTTTCGTCCCTATCTTGACGGAGTCACCTAGTGCAG,9090 fluorescence intensity (a.u.)
10,GTTTTGCGTCATTTGACCAGTACACAGCCACACATGCCATCGGAGTCACCTAGTGCAG,8720 fluorescence intensity (a.u.)
11,ATCTCACTTCTCGCACCTCGCTTTCAGTTTGGTCCATGCCCGGAGTCACCTAGTGCAG,12600 fluorescence intensity (a.u.)
12,AATCCACAACAATGCCAATTTCTTCTTTGCCCAACCCATGCGGAGTCACCTAGTGCAG,8150 fluorescence intensity (a.u.)
13,GCCGAGCTCCATTGCCAACCTCACCGCGCTGCAGACGCTGCGGAGTCACCTAGTGCAG,8620 fluorescence intensity (a.u.)
14,TTGTCATGTTTAATTTCGAACAGCTCATGTGACGGTCAAACGGAGTCACCTAGTGCAG,8530 fluorescence intensity (a.u.)
15,AAACCGGAGTCAAATCCACCGAGGGACTTAGTTTGCACTGCGGAGTCACCTAGTGCAG,9590 fluorescence intensity (a.u.)
16,ATTTCATGCTTTGTTCCTCTGATTACGATCTTGCTCTGTTCGGAGTCACCTAGTGCAG,10800 fluorescence intensity (a.u.)
17,ATTTGGTGTTTAAAATGTTACTATTTTTCTATAAACTTAGCGGAGTCACCTAGTGCAG,8300 fluorescence intensity (a.u.)
18,CCGGTCCAAAATCTAGTTTGACCATGGTCTAACCTACGTGCGGAGTCACCTAGTGCAG,8590 fluorescence intensity (a.u.)
19,AGGTGTTCGTCCATGGACCGCCGGCCGGGGTGGATCTCAACGGAGTCACCTAGTGCAG,8050 fluorescence intensity (a.u.)
20,ACATATCATCCTTACTACTCATGTTTTTAATAATTTCATTCGGAGTCACCTAGTGCAG,8790 fluorescence intensity (a.u.)
21,ACACATTATCTACTCCGTCCACTGTTTTGCAAACTTATCCCGGAGTCACCTAGTGCAG,11500 fluorescence intensity (a.u.)
22,TGCCCCGCTCGCCGGACTTGCCGTGGTTGACCTGCTGCCGCGGAGTCACCTAGTGCAG,11000 fluorescence intensity (a.u.)
23,CTCGCGTCGCGTCCTCTTCCGCATCGGCCCAATCCACCCGCGGAGTCACCTAGTGCAG,8980 fluorescence intensity (a.u.)
24,CCGCCGCTCGCTCGCCCATCCTGCCGTCGCCGCTCCGGGCCGGAGTCACCTAGTGCAG,9200 fluorescence intensity (a.u.)
25,TCTACACTTTTTTTTTCCCTGTACCTATCGAACTCTTTGACGGAGTCACCTAGTGCAG,9240 fluorescence intensity (a.u.)
26,GATTTGTTTTGGTGGCCGCCGGGCCCAACCTGGCATCAACCGGAGTCACCTAGTGCAG,8580 fluorescence intensity (a.u.)
27,GCTGTAATTTTTTCTCTGCCATCATCACTGCATTGGATTACGGAGTCACCTAGTGCAG,11800 fluorescence intensity (a.u.)

# Taken from above.
# Value of TTGTCATGTTTAATTTCGAACAGCTCATGTGACGGTCAAACGGAGTCACCTAGTGCAG under binding signal: 8530 fluorescence intensity (a.u.)
# Value of ATGATGTGCGTTGGTTACTACTCCCTCCGTTTCAAAATGTCGGAGTCACCTAGTGCAG under binding signal: 9380 fluorescence intensity (a.u.)
# Value of GCTGTAATTTTTTCTCTGCCATCATCACTGCATTGGATTACGGAGTCACCTAGTGCAG under binding signal: 11800 fluorescence intensity (a.u.)

# Additional results

row,Sequence,binding signal
1,CCCACTCGTCTCTGTGACCCACCCGCTTCCACTCGCGACTCGGAGTCACCTAGTGCAG,12200 fluorescence intensity (a.u.)
2,AAGTGGTCTTGGTGGTTAGTTGTTTCCGTTGTATTCGTTCCGGAGTCACCTAGTGCAG,11100 fluorescence intensity (a.u.)
3,CACTTGCATGCAGCTGCTACCTAGCTTAGCTTAGCTTAATCGGAGTCACCTAGTGCAG,8170 fluorescence intensity (a.u.)
4,CCCACCTCCACCTCCGCCGGCCGGTACGTTTATCCACTGACGGAGTCACCTAGTGCAG,9030 fluorescence intensity (a.u.)
5,TCTCTCACTGCATAGACACCTGTCATCCATACATCCATCTCGGAGTCACCTAGTGCAG,9330 fluorescence intensity (a.u.)
6,GGACGGAGAAGTAGTTTGGGAAGGTGTTTTCTCTCACTCACGGAGTCACCTAGTGCAG,8200 fluorescence intensity (a.u.)
7,GTCTCCATTGCACCCACGTTGGATCCGCCCTTGCACATGGCGGAGTCACCTAGTGCAG,8470 fluorescence intensity (a.u.)
8,AATACGGCTTGACCTGTTAATTCGATCTGTGCTTTGCTCCCGGAGTCACCTAGTGCAG,8060 fluorescence intensity (a.u.)
9,CTGGGCTTCTGATCGCTTCCATGCTGAGTTGAGTCGTTGCCGGAGTCACCTAGTGCAG,8090 fluorescence intensity (a.u.)
10,GCCAACTACCCTGTCACTCCTTCATAAATTTCCCTCACCTCGGAGTCACCTAGTGCAG,8390 fluorescence intensity (a.u.)
11,GTTGGTTTCTTTGTTCGACGTTTGATCGTCTGTCTTAAAACGGAGTCACCTAGTGCAG,10800 fluorescence intensity (a.u.)
12,AGCAGCAGGGGTGGAGGGAGGAGGCGGTGTCGGGCGCATCCGGAGTCACCTAGTGCAG,14100 fluorescence intensity (a.u.)
13,TGCATTGTTCTTTCTTTCGTTCCATAAGTCGTTGCATCAACGGAGTCACCTAGTGCAG,8270 fluorescence intensity (a.u.)
14,GCGTATATTCTCTTTTCCCCTCCTCACAAACACACCCTAACGGAGTCACCTAGTGCAG,8070 fluorescence intensity (a.u.)
15,TGCCCGAGTGGATCGCCTGGTTTGGATGTCTTGAACTTCTCGGAGTCACCTAGTGCAG,9390 fluorescence intensity (a.u.)
16,AATATACAGTTTTGAGTTTTGACTTAGGCTTCTTTCTACACGGAGTCACCTAGTGCAG,8840 fluorescence intensity (a.u.)
17,CCTTGACAACGAGAATTTCTTCCCACGTACTTGATCGACTCGGAGTCACCTAGTGCAG,9390 fluorescence intensity (a.u.)
18,CGTTTCTTGGTTTCTTCTTGTGCGTCGCCTCGCGCATTGGCGGAGTCACCTAGTGCAG,8570 fluorescence intensity (a.u.)
19,TTTTGACTTTCTCTTACACTGTTTGACCATTTATCTTATTCGGAGTCACCTAGTGCAG,14000 fluorescence intensity (a.u.)
20,TCATACATGTGATCACTCACTCACTCTCACACACACTCTCCGGAGTCACCTAGTGCAG,10100 fluorescence intensity (a.u.)
21,ATGTTCTTCTCACGCGGCTTGTTCGTAACGCTGTTCAGTACGGAGTCACCTAGTGCAG,10200 fluorescence intensity (a.u.)
22,AATCACTATCTGAACTTTTGCCTGAACCTCAACTTTTATCCGGAGTCACCTAGTGCAG,8060 fluorescence intensity (a.u.)
23,CGTGGCGTATATCCCTTATTTCGATGGGTGGGCTTGGGCTCGGAGTCACCTAGTGCAG,10400 fluorescence intensity (a.u.)
24,GCAATATGTTGGGCTCTGTGGTTGAGTAGGAATGATATGACGGAGTCACCTAGTGCAG,9900 fluorescence intensity (a.u.)
25,CCCCAATTCTCCATTTCTCCTAGCTCGCCGGAAACCCTAACGGAGTCACCTAGTGCAG,9440 fluorescence intensity (a.u.)
26,AAAACATTCTCTTCATTTGTGGTGGTGCTTTTGTTGATTTCGGAGTCACCTAGTGCAG,11900 fluorescence intensity (a.u.)
27,CCTACACATACAAACTTCCAACTTTTCCGTCGCATCGTTCCGGAGTCACCTAGTGCAG,14900 fluorescence intensity (a.u.)
